Test [1] addresses HA-tagged IRβ, full-length (FL) (UniProt P06213). Briefly: co-IP; HA antibody, lysates of HeLa cells expressing HA-tagged IRβ FL, ΔCD or ΔTCD; DNAJA2 blotted.
In test [2] the target is insulin receptor β subunit (IRβ) in HepG2 cells (human (endogenous in HepG2)) (UniProt P06213). The test is described as follows: proximity ligation; Duolink In Situ Red on fixed, permeabilised HepG2 cells; for IRβ-AP2B1 in SiCtrl and SiDJ2 cells.
In test [3] the target is insulin receptor β subunit (IRβ), endogenous in various cell lines (not named) (not stated (endogenous in various cell lines; human and mouse lines were used)) (UniProt P06213). Briefly: co-IP; IRβ antibody, lysates of various cell lines (not named), in the presence or absence of insulin treatment; Protein G agarose; lysis buffer 50 mM Tris-HCl pH 7.4, 150 mM NaCl, 1% NP-40, 1 mM EDTA, 1% sodium deoxycholate.

Amino acid sequences for entries named in this document (tags omitted). A change or cut given only in a name is not applied to a line headed by its entry. Residues count along the entry.
UniProt P06213: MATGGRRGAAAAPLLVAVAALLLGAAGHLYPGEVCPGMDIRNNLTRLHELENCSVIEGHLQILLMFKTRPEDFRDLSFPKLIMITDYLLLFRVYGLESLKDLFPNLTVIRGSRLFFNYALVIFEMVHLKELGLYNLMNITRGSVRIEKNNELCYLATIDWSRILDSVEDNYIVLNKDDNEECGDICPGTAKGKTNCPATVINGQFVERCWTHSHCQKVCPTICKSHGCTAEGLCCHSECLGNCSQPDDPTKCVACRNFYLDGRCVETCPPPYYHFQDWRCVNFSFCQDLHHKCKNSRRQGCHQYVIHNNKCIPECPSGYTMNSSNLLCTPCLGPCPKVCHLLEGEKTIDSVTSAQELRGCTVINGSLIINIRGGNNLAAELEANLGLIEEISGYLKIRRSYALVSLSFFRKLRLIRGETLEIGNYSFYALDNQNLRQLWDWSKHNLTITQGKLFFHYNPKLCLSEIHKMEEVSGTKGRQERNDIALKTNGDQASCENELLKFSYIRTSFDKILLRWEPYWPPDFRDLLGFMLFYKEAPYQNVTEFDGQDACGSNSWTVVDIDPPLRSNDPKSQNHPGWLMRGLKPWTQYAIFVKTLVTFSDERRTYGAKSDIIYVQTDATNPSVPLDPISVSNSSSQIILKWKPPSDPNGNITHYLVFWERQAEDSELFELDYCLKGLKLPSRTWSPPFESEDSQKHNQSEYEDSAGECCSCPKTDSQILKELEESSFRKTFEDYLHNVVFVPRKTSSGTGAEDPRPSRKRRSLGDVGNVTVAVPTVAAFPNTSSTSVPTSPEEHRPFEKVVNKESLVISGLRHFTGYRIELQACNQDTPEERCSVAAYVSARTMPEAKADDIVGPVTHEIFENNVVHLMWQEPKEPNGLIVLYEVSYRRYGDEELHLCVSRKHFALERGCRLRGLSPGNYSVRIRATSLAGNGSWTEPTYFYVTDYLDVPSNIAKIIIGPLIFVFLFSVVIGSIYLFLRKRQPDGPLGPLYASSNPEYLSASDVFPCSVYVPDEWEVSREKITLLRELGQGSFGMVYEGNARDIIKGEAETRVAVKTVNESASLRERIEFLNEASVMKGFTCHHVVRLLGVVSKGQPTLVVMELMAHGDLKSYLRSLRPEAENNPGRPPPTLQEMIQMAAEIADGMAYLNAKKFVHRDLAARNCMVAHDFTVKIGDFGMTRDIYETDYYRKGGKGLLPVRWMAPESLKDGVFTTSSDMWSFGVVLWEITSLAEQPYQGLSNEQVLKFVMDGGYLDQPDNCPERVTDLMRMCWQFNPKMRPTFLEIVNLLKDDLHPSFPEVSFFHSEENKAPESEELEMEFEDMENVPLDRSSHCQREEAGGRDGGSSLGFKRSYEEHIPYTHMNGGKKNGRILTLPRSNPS
UniProt P63010: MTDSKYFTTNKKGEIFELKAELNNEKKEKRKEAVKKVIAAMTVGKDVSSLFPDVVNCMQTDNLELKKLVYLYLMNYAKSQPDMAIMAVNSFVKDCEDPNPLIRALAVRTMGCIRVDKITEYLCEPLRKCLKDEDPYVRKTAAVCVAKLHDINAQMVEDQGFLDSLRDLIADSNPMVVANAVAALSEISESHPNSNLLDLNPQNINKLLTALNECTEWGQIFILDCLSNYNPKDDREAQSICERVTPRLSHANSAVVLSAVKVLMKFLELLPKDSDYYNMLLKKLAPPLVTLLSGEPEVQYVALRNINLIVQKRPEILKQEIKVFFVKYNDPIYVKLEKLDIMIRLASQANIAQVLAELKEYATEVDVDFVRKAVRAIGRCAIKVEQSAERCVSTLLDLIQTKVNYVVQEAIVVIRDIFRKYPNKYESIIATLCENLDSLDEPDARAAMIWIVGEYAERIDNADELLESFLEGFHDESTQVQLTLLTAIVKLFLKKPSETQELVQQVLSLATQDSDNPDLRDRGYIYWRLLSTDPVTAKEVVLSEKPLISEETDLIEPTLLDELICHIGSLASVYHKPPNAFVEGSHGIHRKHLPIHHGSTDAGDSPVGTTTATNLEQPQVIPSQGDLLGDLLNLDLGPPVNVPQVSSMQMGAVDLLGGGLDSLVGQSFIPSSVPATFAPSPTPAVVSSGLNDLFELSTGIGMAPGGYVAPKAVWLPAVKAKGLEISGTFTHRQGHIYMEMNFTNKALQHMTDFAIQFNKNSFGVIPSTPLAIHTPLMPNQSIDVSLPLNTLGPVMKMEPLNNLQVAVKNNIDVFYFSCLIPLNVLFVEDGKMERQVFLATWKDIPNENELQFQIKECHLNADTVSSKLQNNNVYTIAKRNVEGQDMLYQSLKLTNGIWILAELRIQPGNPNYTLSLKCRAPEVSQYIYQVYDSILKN
UniProt Q9DBG3: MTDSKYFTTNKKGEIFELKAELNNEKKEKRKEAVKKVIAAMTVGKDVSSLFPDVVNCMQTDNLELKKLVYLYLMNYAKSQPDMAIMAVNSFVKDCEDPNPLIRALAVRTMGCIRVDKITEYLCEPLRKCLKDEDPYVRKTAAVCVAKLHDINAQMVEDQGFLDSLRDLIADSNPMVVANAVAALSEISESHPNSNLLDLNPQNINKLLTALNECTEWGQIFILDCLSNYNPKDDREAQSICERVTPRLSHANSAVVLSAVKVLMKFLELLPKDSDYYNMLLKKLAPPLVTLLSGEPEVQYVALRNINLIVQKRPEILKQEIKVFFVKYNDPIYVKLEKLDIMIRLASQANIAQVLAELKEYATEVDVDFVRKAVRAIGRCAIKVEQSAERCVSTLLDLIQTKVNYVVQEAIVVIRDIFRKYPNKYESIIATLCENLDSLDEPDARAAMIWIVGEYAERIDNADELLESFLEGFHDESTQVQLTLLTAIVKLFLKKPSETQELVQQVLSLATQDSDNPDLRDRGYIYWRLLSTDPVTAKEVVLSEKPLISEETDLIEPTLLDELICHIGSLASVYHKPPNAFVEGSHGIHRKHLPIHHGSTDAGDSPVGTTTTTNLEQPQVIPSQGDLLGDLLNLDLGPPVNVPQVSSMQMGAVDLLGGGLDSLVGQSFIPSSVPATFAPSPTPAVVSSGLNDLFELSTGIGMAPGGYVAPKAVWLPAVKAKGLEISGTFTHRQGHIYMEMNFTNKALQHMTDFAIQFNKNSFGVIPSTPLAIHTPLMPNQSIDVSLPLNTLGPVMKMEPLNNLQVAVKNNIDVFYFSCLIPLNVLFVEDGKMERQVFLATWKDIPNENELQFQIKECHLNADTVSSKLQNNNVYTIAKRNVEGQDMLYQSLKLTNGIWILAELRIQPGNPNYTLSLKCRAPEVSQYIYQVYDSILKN
UniProt O60884: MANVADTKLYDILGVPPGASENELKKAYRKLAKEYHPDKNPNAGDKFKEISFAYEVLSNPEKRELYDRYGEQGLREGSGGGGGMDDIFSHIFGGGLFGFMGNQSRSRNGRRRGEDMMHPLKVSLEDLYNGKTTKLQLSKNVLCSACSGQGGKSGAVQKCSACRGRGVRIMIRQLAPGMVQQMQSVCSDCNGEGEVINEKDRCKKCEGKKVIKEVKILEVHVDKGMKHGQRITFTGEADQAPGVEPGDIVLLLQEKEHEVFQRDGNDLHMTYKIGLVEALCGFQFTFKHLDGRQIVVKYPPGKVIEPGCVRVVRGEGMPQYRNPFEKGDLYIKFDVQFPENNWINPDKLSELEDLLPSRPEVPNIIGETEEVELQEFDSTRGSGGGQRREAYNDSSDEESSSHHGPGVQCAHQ
UniProt P15208, residues 753-1372: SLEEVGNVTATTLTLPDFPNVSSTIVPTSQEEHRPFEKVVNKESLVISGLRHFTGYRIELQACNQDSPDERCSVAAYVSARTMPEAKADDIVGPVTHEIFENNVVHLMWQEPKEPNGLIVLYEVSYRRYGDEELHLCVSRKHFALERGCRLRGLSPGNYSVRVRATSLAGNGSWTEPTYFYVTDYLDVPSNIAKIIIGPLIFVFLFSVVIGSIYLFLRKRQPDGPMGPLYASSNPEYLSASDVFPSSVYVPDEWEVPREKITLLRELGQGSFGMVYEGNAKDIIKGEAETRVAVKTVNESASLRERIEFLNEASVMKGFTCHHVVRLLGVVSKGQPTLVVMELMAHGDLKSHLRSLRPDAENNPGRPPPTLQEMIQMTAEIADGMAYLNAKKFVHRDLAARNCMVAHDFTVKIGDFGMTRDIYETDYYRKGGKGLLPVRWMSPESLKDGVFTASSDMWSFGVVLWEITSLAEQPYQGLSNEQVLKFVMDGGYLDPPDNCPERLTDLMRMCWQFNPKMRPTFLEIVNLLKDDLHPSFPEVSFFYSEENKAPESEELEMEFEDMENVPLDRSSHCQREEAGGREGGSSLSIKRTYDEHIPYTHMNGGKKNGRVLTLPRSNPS

The target of test [4] is adaptor protein 2 (AP2) subunit beta 1 (AP2B1), endogenous in human cells (human (endogenous in HepG2 and HeLa)) (UniProt P63010). The test is described as follows: co-IP; AP2B1 antibody, lysates of HeLa cells expressing WT or mutant HA-tagged IR.
Test [5] addresses insulin receptor β subunit (IRβ), endogenous in HeLa cells (human (endogenous in HeLa)) (UniProt P06213). Briefly: co-IP; IRβ antibody, lysates of DJ2−/− HeLa cells expressing FL, ΔJ or ΔC DNAJA2.
For test [6] the target is unchanged. The test is described as follows: proximity ligation; Duolink In Situ Red, IRβ with FL, ΔJ or ΔC DNAJA2 expressed in DJ2−/− HeLa cells.
In test [7] the target is adaptor protein 2 (AP2) subunit beta 1 (AP2B1), endogenous in human cells (human (endogenous in HepG2 and HeLa)) (UniProt P63010). Briefly: co-IP; AP2B1 antibody, lysates of DJ2−/− HeLa cells expressing FL, ΔJ or ΔC DNAJA2.
In test [8] the target is adaptor protein 2 (AP2) subunit beta 1 (AP2B1), endogenous in mouse cells and liver (mouse (endogenous in 4T1 and liver)) (UniProt Q9DBG3). The test is described as follows: co-IP; reverse: AP2B1 antibody, lysates of WT, DJ2−/− and DNAJA2-overexpressing 4T1 cells.

Results are given in words; binding and its absence hold for the method and conditions named. Binding seen in cells or lysates may run through a third protein. Some entries that bind do so weakly or less than the wild type.

Turning to “DNAJA2 (heat shock protein DNAJA2), endogenous in human cells (from UniProt O60884 1-412)”, the binding result in test [1] and in test [2] was “binds” throughout. Take “DNAJA2, endogenous in various cell lines (not named) (from UniProt O60884 1-412)”: the binding result in test [3] is “binds”. “HA-tagged insulin receptor (IR), wild type (from UniProt P06213 28-1382)”: in test [4], the binding entry is “binds”. With “adaptor protein 2 (AP2) subunit beta 1 (AP2B1), endogenous in human cells (from UniProt P63010 1-937)”, the binding entry in test [5] and in test [2] was “binds” each time. Consider “full-length (FL) DNAJA2 expressed in DJ2−/− HeLa cells (from UniProt O60884 1-412)”, for which the binding entry in test [5] and in test [6] was “binds” each time.

Turning to “insulin receptor β subunit (IRβ), endogenous in HeLa cells (from UniProt P06213 763-1382)”, in test [7], the binding result is reported as “binds”. With “insulin receptor β subunit (IRβ), endogenous in mouse cells and liver (from UniProt P15208 753-1372)”, the binding entry in test [8] is listed as “binds”.

The values are drawn from paper PMC12615670.
